Laboratory results: PubChem BioAssay AID1671195 (Yale University, 2021)
Here is a random part of about 22,000 reagents. Of all reagents, about 1,510 (6.9%) got an active call. 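Active includes knockdowns raising or lowering LDL uptake; positive z-scores mean more uptake, negative mean less.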

- Assay: 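Genes whose knockdown alters LDL uptake in liver cancer cells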 (primary screen)
- Cells: human Huh7 hepatoma cells
- Knock-down reagent: siRNA pool against human genes, 18 nM
- Timing: about 2 to 2.5 days of knockdown, then 8 h LDL uptake
- Treatment: DiI-labelled LDL at 30 µg/ml for 8 h, in lipoprotein-deficient serum medium
- Detection: 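Fluorescent LDL signal imaged in cells, scaled to the plate median, robust z-score for each replicate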
- Scale: robust z-score: higher = more LDL uptake after knockdown
- Call rule: 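a gene counts as active if at least two replicate z-scores exceed ±2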

target gene,"robust z-score, replicate 1","robust z-score, replicate 2","robust z-score, replicate 3",call
TP53TG5 (TP53 target 5),0.551,0.854,-0.685,inactive
SNX12 (sorting nexin 12),0.0423,1.02,0.83,inactive
HEG1 (heart development protein with EGF like domains 1),0.224,-0.276,0.441,inactive
SPATA33 (spermatogenesis associated 33),0.153,2.2,1.59,inactive
CMC1 (C-X9-C motif containing 1),0.488,0.712,0.296,inactive
RBP7 (retinol binding protein 7),0.104,-0.0369,-0.157,inactive
PGF (placental growth factor),-0.216,-0.563,-1.36,inactive
CLTCL1 (clathrin heavy chain like 1),0.0568,-0.561,-0.362,inactive
OGFOD2,-0.391,-0.527,-0.0824,inactive
MFNG (MFNG O-fucosylpeptide 3-beta-N-acetylglucosaminyltransferase),-1.13,1.7,0.133,inactive
HSPE1 (heat shock protein family E (Hsp10) member 1),0.205,0.262,0.0738,inactive
TRPM6,-0.963,-1.05,-0.373,inactive
OR6V1 (olfactory receptor family 6 subfamily V member 1),0.382,0.835,0.423,inactive
THAP7 (THAP domain containing 7),0.232,-0.37,-0.845,inactive
HEBP2 (heme binding protein 2),2.61,-0.0929,0.696,inactive
EPB42 (erythrocyte membrane protein band 4.2),0.548,0.58,-0.0299,inactive
ECHDC1 (ethylmalonyl-CoA decarboxylase 1),-0.838,-0.935,-1.42,inactive
"ADIPOQ (adiponectin, C1Q and collagen domain containing)",-2.1,-2.21,-1.79,active
FBXL5 (F-box and leucine rich repeat protein 5),0.983,-1.69,0.158,inactive
FLYWCH1L (retired record),0.54,0.577,0.236,inactive
LRP4 (LDL receptor related protein 4),0.201,0.671,0.15,inactive
LOC440886 (retired record),0.0232,0.379,0.891,inactive
LOC441341 (retired record),-1.07,-0.913,-0.426,inactive
OLR1 (oxidized low density lipoprotein receptor 1),0.0209,-0.563,-0.473,inactive
C2orf76 (chromosome 2 open reading frame 76),-0.277,-0.521,0.393,inactive
SPMIP10 (sperm microtubule inner protein 10),-0.413,-0.0831,-0.28,inactive
MC4R (melanocortin 4 receptor),-0.952,-0.995,-1.16,inactive
PRCC (proline rich mitotic checkpoint control factor),-0.148,-0.583,0.0585,inactive
LOC389150 (retired record),-0.788,-1.01,-1.24,inactive
KCTD6 (potassium channel tetramerization domain containing 6),1.22,1.04,0.357,inactive
STARD8 (StAR related lipid transfer domain containing 8),0.738,1.63,1.73,inactive
SMCHD1,-1.44,0.706,-1.43,inactive
VPS26A (VPS26 retromer complex component A),0.357,-0.0667,0.191,inactive
AMTN (amelotin),-1.4,-1.84,-1.62,inactive
ZFP90 (ZFP90 zinc finger protein),-0.753,-0.948,-0.955,inactive
CD22 (CD22 molecule),0.516,-0.0214,-0.265,inactive
MIF (macrophage migration inhibitory factor),0.128,0.0589,0.42,inactive
AUH (AU RNA binding methylglutaconyl-CoA hydratase),-1.76,-1.31,-1.64,inactive
STING1 (stimulator of interferon response cGAMP interactor 1),-1.07,-0.978,-1.05,inactive
FAM90A10 (family with sequence similarity 90 member A10),0.317,-0.474,-0.37,inactive
LOC440144 (retired record),-0.594,-0.906,-1.05,inactive
"ZNF812P (zinc finger protein 812, pseudogene)",1.08,0.846,1.17,inactive

15 entries already listed, arranged by “robust z-score, replicate 3”, highest first.
target gene,"robust z-score, replicate 1","robust z-score, replicate 2","robust z-score, replicate 3",call
STARD8 (StAR related lipid transfer domain containing 8),0.738,1.63,1.73,inactive
"ZNF812P (zinc finger protein 812, pseudogene)",1.08,0.846,1.17,inactive
MIF (macrophage migration inhibitory factor),0.128,0.0589,0.42,inactive
KCTD6 (potassium channel tetramerization domain containing 6),1.22,1.04,0.357,inactive
VPS26A (VPS26 retromer complex component A),0.357,-0.0667,0.191,inactive
PRCC (proline rich mitotic checkpoint control factor),-0.148,-0.583,0.0585,inactive
CD22 (CD22 molecule),0.516,-0.0214,-0.265,inactive
FAM90A10 (family with sequence similarity 90 member A10),0.317,-0.474,-0.37,inactive
ZFP90 (ZFP90 zinc finger protein),-0.753,-0.948,-0.955,inactive
STING1 (stimulator of interferon response cGAMP interactor 1),-1.07,-0.978,-1.05,inactive
LOC440144 (retired record),-0.594,-0.906,-1.05,inactive
LOC389150 (retired record),-0.788,-1.01,-1.24,inactive
SMCHD1,-1.44,0.706,-1.43,inactive
AMTN (amelotin),-1.4,-1.84,-1.62,inactive
AUH (AU RNA binding methylglutaconyl-CoA hydratase),-1.76,-1.31,-1.64,inactive

Continued.
target gene,"robust z-score, replicate 1","robust z-score, replicate 2","robust z-score, replicate 3",call
ORM1 (orosomucoid 1),2.01,1.51,1.56,inactive
PRSS16 (serine protease 16),0.307,0.456,0.28,inactive
MTMR14 (myotubularin related protein 14),0.37,-0.43,0.12,inactive
LOC442166 (retired record),1.44,0.87,1.7,inactive
MYADML (myeloid associated differentiation marker like (pseudogene)),1.8,-0.0697,1.73,inactive
CFL1 (cofilin 1),-1.01,-1.27,-1.29,inactive
AK8 (adenylate kinase 8),-0.531,-0.478,-0.136,inactive
PRODH2 (proline dehydrogenase 2),-1.56,-0.678,-1.6,inactive
RACGAP1 (Rac GTPase activating protein 1),0.87,0.895,0.714,inactive
LOC388604 (retired record),-0.812,-0.373,-0.544,inactive
LINC00869 (long independently transcribed non-coding RNA 869),0.395,-0.472,-1.06,inactive
RAB11FIP1 (RAB11 family interacting protein 1),1.44,0.942,0.882,inactive
RPL7P48 (ribosomal protein L7 pseudogene 48),-0.925,-0.596,-1.22,inactive
CLMP (CXADR like cell adhesion molecule),0.529,0.474,0.478,inactive
BTF3P10 (basic transcription factor 3 pseudogene 10),0.637,0.33,0.494,inactive
RPL34P34 (ribosomal protein L34 pseudogene 34),-0.554,-0.127,-0.144,inactive
LOC390606 (retired record),-1.01,-1.37,-1.41,inactive
FZD7 (frizzled class receptor 7),-1.06,-0.825,-0.737,inactive
MLKL (mixed lineage kinase domain like pseudokinase),-1.47,-1.87,-2.02,inactive
ATP8A1 (ATPase phospholipid transporting 8A1),0.472,1.03,1.04,inactive
GPT (glutamic--pyruvic transaminase),1.15,2.6,1.52,inactive
"MUC1 (mucin 1, cell surface associated)",-1.29,-1.16,-1.66,inactive
AHSG (alpha 2-HS glycoprotein),1.38,-0.0932,0.305,inactive
AGXT (alanine--glyoxylate aminotransferase),-2.14,-1.58,-1.74,inactive
SLC22A8,0.0563,0.221,0.812,inactive
RBM8A (RNA binding motif protein 8A),-0.156,0.914,-0.331,inactive
UPK3B (uroplakin 3B),-0.115,0.221,-0.282,inactive
LRFN4,0.275,0.481,-0.333,inactive
ADSS2 (adenylosuccinate synthase 2),0.0958,-0.121,0.852,inactive
LOC440999 (retired record),1.62,1.58,1.25,inactive
NFATC2IP (nuclear factor of activated T cells 2 interacting protein),0.839,1.01,1.13,inactive
SRRM3 (serine/arginine repetitive matrix 3),0.188,0.768,0.424,inactive
CLDN22 (claudin 22),-1.38,-1.48,-1.64,inactive
EMX1 (empty spiracles homeobox 1),0.832,1.51,0.398,inactive
LOC442398 (retired record),-0.271,-0.135,-0.175,inactive
NETO1 (neuropilin and tolloid like 1),-1.02,-1.64,-1.73,inactive
NDUFA6 (NADH:ubiquinone oxidoreductase subunit A6),2.51,0.101,-0.497,inactive
OR51M1 (olfactory receptor family 51 subfamily M member 1),-0.794,-0.67,-0.933,inactive
MAGEA1 (MAGE family member A1),-0.581,0.703,-0.242,inactive
"B3GALT2 (beta-1,3-galactosyltransferase 2)",-0.486,-1.15,-0.848,inactive
PDGFA-DT (PDGFA divergent transcript),-0.463,-0.84,-0.56,inactive
SLC25A47,0.979,1.03,1.16,inactive
LOC391405 (retired record),0.706,0.815,0.722,inactive
CINP (cyclin dependent kinase 2 interacting protein),-2.43,-0.932,-1.91,inactive
TMEM25 (transmembrane protein 25),-1.61,-0.888,-0.995,inactive
